In PubChem BioAssay AID445 (National Center for Advancing Translational Sciences (NCATS), 2006) one finds AC50 data, which are given here for 40 compounds.

Some of the results follow. These are further read-outs of the screen, such as a control signal, another cell line or another target. No call is given for them. The list favours compounds with an active or inconclusive main result. Potencies come from curve fits of mixed quality, noted in brackets.

The assay is described as follows: IkB Signaling. The following applies: ABC-DLBCL IkBa-CBG/CBR dual luciferase ratio (green luciferase fused to IkBa over red control in OCI-Ly3 lymphoma cells), 4 h. In outline:
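In this assay, an IκBα–CBG68 fusion accumulates when IKK-driven degradation is blocked; native CBR normalizes for cell number. OCI-Ly3 cells were treated 4 h with compound and doxycycline, then green and red light read after Chroma-Glo addition.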

The mark [1] stands for this setting: measured here: control luc red channel unless noted.
Where [2] appears, read: measured here: IkB-luc green channel.
Setting [3] is: measured here: control luc red channel.

In general, AC50 refers to the concentration giving half of the maximal activity seen. As to `CCC12CN3CC(C)(CN(C1)C3c1ccccc1C)C2=O` (configuration not stated), under setting [1], the AC50 was 39.8 µM [falling, single point]. On to `Cc1ccccc1-c1nc2cc(NC(=O)c3cccc(OCCC(C)C)c3)ccc2o1`, for which, under setting [1], the AC50 is 0.631 µM [falling, full curve]. Still for that read-out and setting: to `COc1cc(NC(=O)c2ccc(-c3nc(COc4ccccc4)c(C)o3)cc2)cc(OC)c1` belongs 2.51 µM [falling, full curve]; to `O=C1Nc2ccccc2C(O)(C(=O)NCc2ccco2)N1c1ccc(Cl)c(Cl)c1` (configuration not stated), 0.316 µM [falling, full curve]. `O=C(CSc1nnc(CNC(=O)c2ccccc2F)n1-c1ccccc1)Nc1ccccc1F`: the AC50 under setting [1] was 6.31 µM [falling, partial curve]. The same measure, in the same setting: to `CC(=O)C1=C(c2ccc(Cl)c(Cl)c2)N(C(C)=O)n2c(nnc2C2CCCCC2)S1` belongs 15.8 µM [falling, partial curve]. On the same count and under the same terms, to `O=C(CCc1nnc2n(Cc3ccccc3Cl)c(=O)c3ccccc3n12)Nc1ccc(F)cc1` belongs 31.6 µM [falling, partial curve]; to `Cc1ccc(S(=O)(=O)c2cnc(SC(C)C(=O)Nc3ccccc3)[nH]c2=O)cc1` (configuration not stated), 15.8 µM [falling, partial curve]; to `CCN1C(=O)c2cccc3c(S(=O)(=O)NCc4ccco4)ccc1c23`, 31.6 µM [rising, partial curve] [measured here: IkB-luc green channel]. The same measure, in the same setting: as for `Cc1noc(C)c1CSc1nc2ccccc2c(=O)n1-c1ccccc1`, the figure is 25.1 µM [falling, single point]; as for `COc1cccc(C(c2c(O)cc(C)n(Cc3ccco3)c2=O)N2CCN(c3ccccc3)CC2)c1` (configuration not stated), 6.31 µM [falling, partial curve, poor fit]; as for `O=C(CSc1nccn1Cc1ccc(Cl)cc1)Nc1ccc2c(c1)OCCO2`, 39.8 µM [falling, single point]. As for `Cc1ccc(SC/C(O)=C(\C#N)c2nc3ccccc3s2)cc1`, under setting [1], the half-maximal activity concentration (AC50) was 2 µM [falling, full curve].

As to `COC(=O)c1cc2sccc2n1Cc1nc(-c2ccc(Cl)cc2)oc1C`, the half-maximal activity concentration (AC50) under setting [1] is 31.6 µM [falling, single point]. Still for that read-out and setting: as for `CCOCCCn1c(SCC(=O)Nc2ccc(C)cc2)nc2ccccc2c1=O`, the figure is 31.6 µM [falling, single point]; as for `COc1ccc(CNC(=O)C(C)n2ccc3cc(S(=O)(=O)N4CCCC4)ccc32)cc1OC` (configuration not stated), 7.94 µM [falling, partial curve]; as for `COc1ccccc1NC(=O)C1=C(C)Nc2nc(SCc3ccccc3C)nn2C1CC(C)C` (configuration not stated), 2.51 µM [falling, full curve]. Still for that read-out and setting: to `COc1ccc(C(=O)c2oc3ccc(OC)cc3c2N)cc1` belongs 0.794 µM [rising, partial curve]; to `O=C(COc1ccccc1)Nc1nnc(S(=O)(=O)N2CCCC2)s1`, 15.8 µM [falling, single point]. `O=C(OCC1CCCO1)c1ccc2c(c1)N(Cc1ccccc1Cl)C(=O)c1ccccc1S2(=O)=O` (configuration not stated): the AC50 was 0.316 µM [rising, partial curve] under setting [2] and 7.94 µM [rising, partial curve] under setting [3]. As to `O=C(Nc1ccc2oc(-c3ccc4ccccc4c3)nc2c1)c1ccccc1F`, the AC50 under setting [1] is 0.794 µM [rising, full curve]. On the same count and under the same terms, as for `CCOc1ccc(-n2c(=O)c3c4c(sc3n(CC(=O)Nc3cccc(C(F)(F)F)c3)c2=O)CCCCC4)cc1`, the figure is 12.6 µM [falling, partial curve]; as for `COc1ccccc1NC(=O)C(Cc1ccccc1)NS(=O)(=O)c1ccc2c(c1)c(=O)n(C)c(=O)n2C` (configuration not stated), 15.8 µM [falling, partial curve]; as for `O=C(NCc1ccc(F)cc1)c1c(O)nc2ccccn2c1=O`, 25.1 µM [falling, single point]. Same read-out and setting: to `CCCCOc1cccc(NC(=O)CSc2nnc(C)s2)c1` belongs 31.6 µM [falling, single point]; to `CN(Cc1ccccc1)c1ncnc2onc(-c3ccc(F)cc3)c12`, 15.8 µM [falling, partial curve]; to `COc1ccc(NC(=O)COc2ccc(S(=O)(=O)NC3CCCCC3)cc2)cc1OC`, 15.8 µM [falling, partial curve]. On the same count and under the same terms, as for `CC(NC(=O)CCNS(=O)(=O)c1cccc2nsnc12)c1ccccc1` (configuration not stated), the figure is 31.6 µM [falling, partial curve]; as for `Cc1ccc2c(=O)cc(CSCC(=O)Nc3nnc(C)s3)[nH]c2c1`, 39.8 µM [falling, single point]; as for `O=C(Nc1cccc(Cl)c1)c1cnc[nH]1`, 12.6 µM [falling, partial curve].

Take `O=C(COc1ccccc1)N(Cc1cccnc1)c1nc2ccc(F)cc2s1`: the AC50 under setting [1] is 2.51 µM [rising, partial curve]. On the same count and under the same terms, as for `O=C(CN1C(=O)COc2ccc(S(=O)(=O)N3CCOCC3)cc21)N1CCN(c2ccccc2)CC1`, the figure is 31.6 µM [falling, single point]. Take `Cc1c(C(=O)OC2CCCC2)[nH]c2c1C(=O)CC(c1ccco1)C2` (configuration not stated): the AC50 was 15.8 µM [rising, partial curve] under setting [2] and 1 µM [rising, partial curve] under setting [3].

`COc1ccc(CCNC(=O)C2CCCN(c3nc4c(C)cc(C)cc4s3)C2)cc1OC` (configuration not stated): the AC50 under setting [1] is 25.1 µM [falling, partial curve]. On the same count and under the same terms, to `CCOC(=O)c1c(NC(=O)c2cc(C(C)C)on2)sc(C)c1C` belongs 39.8 µM [rising, single point]; to `Cc1ccc(S(=O)(=O)C(CNC(=O)c2ccccc2F)c2cccs2)cc1` (configuration not stated), 31.6 µM [falling, single point].

`Cc1cccc(CN2CCN(CC(=O)NCc3ccc(Cl)cc3)C2=O)c1`: the AC50 under setting [1] was 1.58 µM [falling, partial curve, poor fit].

Regarding `Cc1cc(C)cc(NS(=O)(=O)c2ccc3c(c2)CCCN3C(=O)C2CCC2)c1`, under setting [1], the AC50 was 39.8 µM [falling, single point].

In the case of `CCc1ccc2oc(C(=O)Nc3nonc3CC)c(C)c2c1`, under setting [1], the AC50 is 0.2 µM [rising, full curve]. The same measure, in the same setting: as for `O=C(Nc1ccc(Br)cc1F)c1ncoc1-c1ccco1`, the figure is 0.0126 µM [rising, full curve, poor fit].
